Assay results as given in PubChem BioAssay AID624297 (National Center for Advancing Translational Sciences (NCATS), 2012).
About 6,200 (1.8%) of roughly 340,000 compounds were called active. The shares of active, inactive and inconclusive entries below differ from those in the screen. The call rests on the fitted dose curve; in most records, active means well fitted activation curve with a large enough effect; inconclusive means small, poorly fitted or top-dose-only effect; inactive means no such curve, though single readings can be large or run the other way. Potencies of inconclusive entries are doubtful fits and often do not repeat.

test: A quantitative high throughput screen for small molecules that induce DNA re-replication in SW480 colon adenocarcinoma cells.; further: nearly all actives have a fitted effect of over 55% in size; on re-replication activation: % of control where 0% means no effect; details: Hoechst DNA content imaging, 48 h; re-replication activation: at 46.1 µM (top of the series) unless noted
How it was run: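 First, 250 cells per well were seeded. Next, compound or vehicle (23 nL) was pinned in, plates sat 48 hr at 37 C. Finally Hoechst was added for 40 min before fluorescence scanning.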
Potency means the concentration at half of the fitted maximal effect.

| Structure (SMILES) | Potency | re-replication activation |
| --- | --- | --- |
| Cc1c(O)ccc2c(CC(=O)N[C@@H](Cc3ccccc3)C(=O)O)cc(=O)oc12 | inconclusive: 0.58 µM [activator, partial curve, poor fit] |  |
| O=C(NC1=NCCS1)c1cc(-c2ccc(F)cc2)nc2ccccc12 | inactive |  |
| C=CCNc1nc(N(c2ccccc2)c2ccccc2)nc(-n2ccnc2)n1 | inactive |  |
| CC(C1CC1)N(C(=O)c1ccccc1[N+](=O)[O-])c1ccccc1 (stereo not drawn) | inconclusive: 0.58 µM [activator, single point] |  |
| C/C(=N/NC(=O)c1cccs1)c1c(C)[nH]n(-c2nc3ccccc3s2)c1=O | inconclusive: 25.9 µM [activator, single point] |  |
| CCc1nc2ccc(C(=O)NCCCN3CCN(c4ccccc4F)CC3)cc2nc1CC | inconclusive: 18.4 µM [activator, single point] |  |
| Cc1ccc(NC2CCCN(C(=O)c3ccoc3)C2)cc1C (stereo not drawn) | inconclusive: 29.1 µM [activator, single point] |  |
| COc1ccc(NC(=O)Cn2nnc(-c3ccccc3F)n2)cc1Cl |  | inactive: -3.15% [at 9.22 µM] |
| CCOc1cccc(-c2cc(-c3n[nH]c(=S)n3CC)c3ccccc3n2)c1 | inactive |  |
| COc1ccc(OCCN2CCOCC2)cc1 |  | inconclusive: 71.1% [activator] |
| CC(=O)N1CCOc2ccc(S(=O)(=O)N3CC(C)CC(C)C3)cc21 (stereo not drawn) | inconclusive: 25.9 µM [activator, partial curve, poor fit] |  |
| COc1ccc(C(=O)Nc2nc(N)n(-c3ccccc3)n2)cc1 | inconclusive: 1.3 µM [activator, partial curve] |  |
| O=C(Cn1cnc2c(NCc3ccccc3)ncnc21)NCc1ccc2c(c1)OCO2 | inconclusive: 23.1 µM [activator, single point] |  |
| Cc1nc2c(c(C)nn2-c2ccccc2)c(C)c1CCC(=O)Nc1ccc(CN2CCCC2)cc1 | inconclusive: 18.4 µM [activator, partial curve, poor fit] |  |
| Cc1ccc(OCCNC(=O)c2cccc(S(=O)(=O)NCc3ccccc3)c2)cc1 | active: 6.51 µM |  |
| COc1cccc(S(=O)(=O)NCc2ccc(C(=O)Nc3cccc(Cl)c3)cc2)c1 | inconclusive: 32.6 µM [activator, partial curve, poor fit] |  |
| O=C1c2ccccc2C(=O)N1COc1ccc(S(=O)(=O)N2CCOCC2)cc1[N+](=O)[O-] | inactive |  |
| CC(C)S(=O)(=O)c1csc(NC(=O)Nc2cccc([N+](=O)[O-])c2)c1Cl | inactive |  |
| Cc1ccc(S(=O)(=O)NCCSCc2ccco2)cc1 | inconclusive: 20.6 µM [activator, single point] |  |
| COC(=O)C(=C/C(C)=C/c1cccnc1)C(=O)OC | inconclusive: 29.1 µM [activator, single point] |  |
| COCCN1C2=C(COC(C)(C)C2)C(=S)NC1c1ccccc1 (stereo not drawn) | inconclusive: 25.9 µM [activator, partial curve, poor fit] |  |
| COc1ccc(C(CC(=O)Nc2ccc(F)cc2)c2ccccc2)cc1 (stereo not drawn) | inconclusive: 10.3 µM [activator, single point] |  |

| Structure (SMILES) | Potency | re-replication activation |
| --- | --- | --- |
| Cc1cc(F)ccc1NC(=O)CCc1c(C)nn(-c2ccc(N3CCCCC3)nn2)c1C | inconclusive: 2.06 µM [activator, partial curve, poor fit] |  |
| CCC(=O)c1cn(CC(=O)Nc2ccc(C)cc2)c2ccccc12 | inconclusive: 4.11 µM [activator, single point] |  |
| Oc1c(Cl)cc(CN2CCOCC2)c2cccnc12 | inconclusive: 5.8 µM [activator, partial curve, poor fit] |  |
| N#Cc1cc2c(nc1SCC(=O)Nc1sc3c(c1C#N)CCC3)CCCC2 | inactive |  |
| CCCS(=O)(=O)c1c(S(=O)(=O)CCC)c2c(C(N)=O)cccn2c1C(=O)c1ccc(F)cc1 | inconclusive: 0.1 µM [activator, partial curve, poor fit] |  |
| COc1ccccc1C(=O)NC(C)C(c1cccs1)N1CCN(C)CC1 (stereo not drawn) | inactive |  |
| CC(C)(C)C(=O)Nc1ccc(S(=O)(=O)NC2=NCCCCC2)cc1 | inactive |  |
| Cc1csc(NC(=O)c2cc3c(C)nn(Cc4ccccc4Cl)c3s2)n1 | inconclusive: 29.1 µM [activator, partial curve, poor fit] |  |
| CCN(CC)C(=O)c1sc2nc(-c3ccncc3)[nH]c(=O)c2c1C | inactive |  |
| C/C(CC1CC(COCC(C)C)OC1=O)=N\Nc1nc(-c2ccccc2)cs1 (stereo not drawn) | inconclusive: 32.6 µM [activator, partial curve, poor fit] |  |
| CCOC(=O)c1nc(N2CCN(C(=O)OCC)CC2)c2c3c(sc2n1)CCCC3 | inconclusive: 20.6 µM [activator, partial curve, poor fit] |  |
| CC1(CCc2ccc3c(c2)OCO3)NC(=O)c2ccccc2N1 (stereo not drawn) | inconclusive: 29.1 µM [activator, single point] |  |
| Cc1nc(NCCC(C)C)c2nnn(Cc3ccccc3)c2n1 | inconclusive: 5.17 µM [activator, full curve, poor fit] |  |
| FC(F)(F)c1cnc(NNC(=S)Nc2ccccc2Cl)c(Cl)c1 | inactive |  |
| COC(=O)c1cccc(F)c1C(=O)c1cccc2ccccc12 | inconclusive: 18.4 µM [activator, single point] |  |
| CN(CCOc1ccccc1)C(=O)c1ccc(N2CCCC2)c([N+](=O)[O-])c1 | inactive |  |
| CC(C)c1cc(C(=O)N2CCCC(N3CCN(c4ccc(F)cc4)CC3)C2)n(C)n1 (stereo not drawn) | inconclusive: 20.6 µM [activator, single point] |  |
| Cc1ccc(NC(=O)C2=C(C(=O)O)CCCC2)cc1Br | active: 8.2 µM |  |
| CCOC(=O)c1ccc(N2CCOCC2)c(NC(=O)c2ccc3c(c2)OCO3)c1 | inactive |  |
| Oc1c(Br)cc(Br)cc1CNc1cccc2cccnc12 | inconclusive: 23.1 µM [activator, single point] |  |
| O=c1[nH]c(=O)c2nc3c4ccccc4c4ccccc4c3nc2[nH]1 | inconclusive: 20.6 µM [activator, partial curve] |  |

3 entries from above, bar-delimited:
Structure (SMILES) | Potency | re-replication activation
CN(CCOc1ccccc1)C(=O)c1ccc(N2CCCC2)c([N+](=O)[O-])c1 | inactive | 
CC(C)c1cc(C(=O)N2CCCC(N3CCN(c4ccc(F)cc4)CC3)C2)n(C)n1 (stereo not drawn) | inconclusive: 20.6 µM [activator, single point] | 
Cc1ccc(NC(=O)C2=C(C(=O)O)CCCC2)cc1Br | active: 8.2 µM | 
